{"source": "patent US10160948B2", "about": "“Pluripotent embryonic-like stem cells, compositions, methods and uses thereof” (ABT HOLDING COMPANY, priority 1999, dated 2018)", "key": {"[1]": {"test_system": "mesenchymal stem cells from adult human skeletal muscle", "experiment": "Dexamethasone treatment of cells from adult human skeletal muscle, assays for phenotypes", "assay_type": "cell-based", "conditions": "person and 37 year old male donors"}, "[2]": {"test_system": "human mesenchymal stem cells", "experiment": "Insulin/dexamethasone analysis to identify progenitor and pluripotent cells (morphology)", "assay_type": "cell-based", "method": "Aliquots of CM-SkM, CF-SkM, NHDF, PAL#3, and PAL#2 cells were thawed and plated individually at 10,000 cells per well in 1% gelatin-coated 24-well plates [Corning, Corning, N.Y.] utilizing PM-B. After 24 hr PM-B was removed and replaced with either control medium, insulin testing medium, or dexamethasone testing medium. Control medium consisted of 98% (v/v) Opti-MEM containing 0.01 mM β-mercapto-ethanol, 1% (v/v) HS3, and 1% antibiotic-antimycotic solution. Insulin testing medium consisted of control medium containing 2 μg/ml insulin [Sigma]. Dexmethasone testing medium was composed of 98% Opti-MEM, 0.01 mM β-mercaptoethanol, 1% serum [HS3, HS9 (horse serum, lot number 90H-0701, Sigma) or FBS (fetal bovine serum, lot no. 3000L, Atlanta Biologicals, Norcross, Ga.)] and 1% antibiotic-antimycotic solution. […]\nDiscernible changes in phenotypic expression of the cells were assayed morphologically. These morphological tissue cellular types were identical to those previously noted in avian and mouse mesenchymal stem cells incubated with insulin or dexamethasone and extensively analyzed by histochemical and immunochemical procedures (Young et al., 1995; Rogers et al., 1995; Young et al., 1993; Young, 1999; Young et al., 1998). […]\nDiscernible changes in phenotypic expression of the putative mesenchymal stem cells were determined using morphological criteria. […]"}, "[3]": {"test_system": "cells isolated from adult rat marrow", "experiment": "Dexamethasone treatment of secondary cultures of cells from adult rat marrow, assays for phenotypes", "assay_type": "cell-based", "conditions": "4 weeks of treatment"}, "[4]": {"test_system": "cells isolated from granulation tissue", "experiment": "Dexamethasone treatment of cells from granulation tissue (wound chambers), assays for phenotypes", "assay_type": "cell-based, rat"}}, "note": "At least one compound was matched to its structure with a doubt left.", "data": [{"smiles": "C[C@@H]1C[C@H]2[C@@H]3CCC4=CC(=O)C=C[C@]4(C)[C@@]3(F)[C@@H](O)C[C@]2(C)[C@@]1(O)C(=O)CO", "note": "[Dex, dexamethasone]", "values": [{"measurement": "morphologies in secondary cultures treated with dexamethasone", "setting": "[1]", "result": "several morphologies, including adipocytes, cartilage and bone"}, {"measurement": "effect on phenotypic expression at 80 cell doublings", "setting": "[2]", "result": "altered the phenotypic expression of the cells"}, {"measurement": "dexamethasone concentrations at which endothelial cells appeared", "setting": "[3]", "result": "10^−7 and 10^−6"}, {"measurement": "dexamethasone concentrations at which smooth muscle cells were most numerous", "setting": "[3]", "result": "10^−7 and 10^−6"}, {"measurement": "dexamethasone concentrations at which smooth muscle cells appeared", "setting": "[4]; after 3 weeks in culture", "result": "10^−7 and 10^−6"}, {"measurement": "dexamethasone concentrations at which myotubes were more numerous", "setting": "[4]; beginning about one week in culture", "result": "10^−8 and 10^−7"}]}]}
